Test results as given in PubChem BioAssay AID216 (DTP/NCI, 2004).
The list does not hold the whole screen: its compounds were picked by chemical class. Not every dose and run of a compound is shown. T/C is the treated group as % of the vehicle group. Some entries give survivors of the animals treated and no T/C: the source holds a T/C of zero for them, seemingly a mark for toxic or unscored doses. Some doses without a T/C left all or most animals alive at the check, yet need not have been tolerated: survival well below the control is almost never listed, so the zero probably covers shortened survival too. Survivors were counted at the toxicity check, usually on the fifth day, unless a day is given; later deaths do not show. Schedules are NCI's codes, taken here to give the interval after Q, in days (D) or hours (H), and the number of doses after X. Some schedule codes hold Z or #, which are not explained here. Some doses were run more than once; their values stand side by side, smallest first. For survival time, the PubChem record calls one and a half times the control and up active, and a quarter to a half above the control has no call in these data; cut-offs in other NCI protocols can differ. Some T/C values carry the count of animals alive at the toxicity check (mostly the fifth day); where neither a count nor a note follows, no animal had died by that day.

Tested on: BDF1 mice, P288 leukemia ip, survival T/C
Test: NCI In Vivo Anticancer Drug Screen. Data for tumor model P288 Lymphocytic Leukemia (intraperitoneal) in B6D2F1 (BDF1) mice
Conditions: T/C endpoint: survival time, mean or median, higher T/C = longer survival
Description: The antitumor activity of compounds was measured in mice bearing transplantable tumors. Survival or tumor size were measured and the results are expressed as the measurement made in the treated group (T) divided by the measurement made in the vehicle treated control group (C). The tumor model used in this assay is P288 Lymphocytic Leukemia (intraperitoneal) in B6D2F1 (BDF1) mice

[1] = dose: 1.0 mg/kg/injection, schedule: Q01DX Z (ip), vehicle: carboxymethylcellulose (CMC)
[2] = dose: 2.0 mg/kg/injection, schedule: Q01DX Z (ip), vehicle: carboxymethylcellulose (CMC)

**Q.** What does the source list for `CN(N=O)C(=N)N[N+](=O)[O-]`?
**A.** T/C (dose: 1.18 mg/kg/injection, schedule: Q01DX Z (ip), vehicle: carboxymethylcellulose (CMC)): 86 % of control; survivor count (dose: 2.35 mg/kg/injection, schedule: Q01DX Z (ip), vehicle: carboxymethylcellulose (CMC)): 6 of 6; T/C (dose: 4.7 mg/kg/injection, schedule: Q01DX Z (ip), vehicle: carboxymethylcellulose (CMC)): 98 % of control; T/C (dose: 8.0 mg/kg/injection, schedule: Q01DX010 (ip), vehicle: saline): 125 and 128 % of control; T/C (dose: 9.4 mg/kg/injection, schedule: Q01DX Z (ip), vehicle: carboxymethylcellulose (CMC)): 91 and 117 % of control; T/C (dose: 16.0 mg/kg/injection, schedule: Q01DX010 (ip), vehicle: saline): 125 and 150 % of control; T/C (dose: 18.75 mg/kg/injection, schedule: Q01DX Z (ip), vehicle: carboxymethylcellulose (CMC)): 86 % of control; T/C (dose: 32.0 mg/kg/injection, schedule: Q01DX010 (ip), vehicle: saline): 106 and 128 % of control; T/C (dose: 37.5 mg/kg/injection, schedule: Q01DX Z (ip), vehicle: carboxymethylcellulose (CMC)): 96 % of control; survivor count (dose: 64.0 mg/kg/injection, schedule: Q01DX010 (ip), vehicle: saline): 0 of 6 and 3 of 6; survivor count (dose: 75.0 mg/kg/injection, schedule: Q01DX Z (ip), vehicle: carboxymethylcellulose (CMC)): 5 of 6

**Q.** Which T/C (dose: 0.06 mg/kg/injection, schedule: Q01DX Z (ip), vehicle: carboxymethylcellulose (CMC)) does the source give for `Cc1[nH]c(=O)[nH]c(=O)c1N(CCCl)CCCl` here?
**A.** The T/C was 104 % of control.

**Q.** And the T/C (dose: 0.12 mg/kg/injection, schedule: Q01DX Z (ip), vehicle: carboxymethylcellulose (CMC))?
**A.** The T/C was 106 % of control.

**Q.** And the T/C (dose: 0.25 mg/kg/injection, schedule: Q01DX Z (ip), vehicle: carboxymethylcellulose (CMC))?
**A.** Its T/C is 97 [5 of 6 alive] and 106 % of control.

**Q.** What about the T/C (dose: 0.5 mg/kg/injection, schedule: Q01DX010 (ip), vehicle: saline) of the same compound?
**A.** Its T/C is 112 % of control.

**Q.** And the T/C (dose: 0.5 mg/kg/injection, schedule: Q01DX Z (ip), vehicle: carboxymethylcellulose (CMC))?
**A.** Its T/C is 92 [4 of 6 alive] and 128 % of control.

**Q.** What about the T/C (dose: 1.0 mg/kg/injection, schedule: Q01DX010 (ip), vehicle: saline) of the same compound?
**A.** Its T/C is 218 % of control.

**Q.** And the T/C [1]?
**A.** The T/C was 121 % of control.

**Q.** What about the survivor count [1] of the same compound?
**A.** Its survivor count is 3 of 6.

**Q.** What about the T/C (dose: 2.0 mg/kg/injection, schedule: Q01DX010 (ip), vehicle: saline) of the same compound?
**A.** The T/C was 156 % of control.

**Q.** What about the T/C [2] of the same compound?
**A.** The T/C was 144 % of control.

**Q.** And the survivor count [2]?
**A.** The survivor count was 2 of 6.

**Q.** And the T/C (dose: 4.0 mg/kg/injection, schedule: Q01DX010 (ip), vehicle: saline)?
**A.** The T/C was 100 % of control.

**Q.** What about the T/C (dose: 4.0 mg/kg/injection, schedule: Q01DX Z (ip), vehicle: carboxymethylcellulose (CMC)) of the same compound?
**A.** Its T/C is 172 % of control.

**Q.** Which survivor count (dose: 1.25 mg/kg/injection, schedule: Q01DX010 (ip), vehicle: saline) does the source give for `NC1CCCCC1.O=P(O)(N(CCCl)CCCl)N1CC1` here?
**A.** Its survivor count is 6 of 6.

**Q.** And the T/C (dose: 2.5 mg/kg/injection, schedule: Q01DX010 (ip), vehicle: saline)?
**A.** Its T/C is 95 and 110 % of control.

**Q.** What about the T/C (dose: 5.0 mg/kg/injection, schedule: Q01DX010 (ip), vehicle: saline) of the same compound?
**A.** The T/C was 121 and 125 % of control.

**Q.** And the T/C (dose: 10.0 mg/kg/injection, schedule: Q01DX010 (ip), vehicle: saline)?
**A.** The T/C was 130 and 152 % of control.

**Q.** And the T/C (dose: 20.0 mg/kg/injection, schedule: Q01DX010 (ip), vehicle: saline)?
**A.** Its T/C is 184 % of control.

**Q.** How did the T/C (dose: 3.1 mg/kg/injection, schedule: Q01DX Z (ip), vehicle: water) turn out when `CC[C@H](C)[C@@H]1NC(=O)/C(=C(\C)O)C1=O` was run?
**A.** Its T/C is 89 % of control.

**Q.** What about the T/C (dose: 6.25 mg/kg/injection, schedule: Q01DX Z (ip), vehicle: water) of the same compound?
**A.** The T/C was 103 % of control.

**Q.** What about the T/C (dose: 12.5 mg/kg/injection, schedule: Q01DX Z (ip), vehicle: water) of the same compound?
**A.** The T/C was 90 % of control.

**Q.** And the T/C (dose: 25.0 mg/kg/injection, schedule: Q01DX Z (ip), vehicle: water)?
**A.** Its T/C is 106 % of control.

**Q.** And the T/C (dose: 50.0 mg/kg/injection, schedule: Q01DX Z (ip), vehicle: water)?
**A.** The T/C was 122 % of control [5 of 6 alive].

**Q.** What about the survivor count (dose: 100.0 mg/kg/injection, schedule: Q01DX Z (ip), vehicle: water) of the same compound?
**A.** Its survivor count is 3 of 6.

**Q.** And the survivor count (dose: 200.0 mg/kg/injection, schedule: Q01DX Z (ip), vehicle: water)?
**A.** The survivor count was 0 of 6.
